The list shows a part of the results. Shown are side measurements of this screen, not its main read-out; they come without a call. Compounds called inactive in the main read-out are mostly missing here. Words in brackets tell the shape of the fitted curve; partial curves, single points and poor fits give uncertain potencies.
assay: Cell signaling CRE-BLA (Fsk stim); conditions: CHO CRE-bla reporter (cAMP response element driving beta-lactamase), forskolin EC10, beta-lactamase ratio; measured here: 460 nm blue channel
Procedure, shortened: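 CHO CRE-bla cells, overnight plating in Opti-MEM with 0.5% dialyzed FBS; cpd titration + EC10 NKH 477, 3 h 37 °C; CCF4 2 h RT; ex 405/em 460 vs 530 ratio → %Activity, AC50.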

SMILES | AC50
C1=CC2c3ccccc3NC(c3ccncc3)C2C1 (stereo not drawn) | 10 µM [rising, single point]
COc1ccc2cc(CCNC(=O)c3ccc(Br)o3)c(=O)[nH]c2c1 | 12.6 µM [rising, single point]
CCOC(=O)C1CCCN(C(=O)c2sc3nc(-c4ccc(F)cc4)cn3c2C)C1 (stereo not drawn) | 1.26 µM [rising, full curve, poor fit]
CCOC(=O)N1CCC(NC(=O)c2cccn3c(=O)c4cc(Br)ccc4nc23)CC1 | 12.6 µM [rising, single point]
COc1ccc(O)c(C2NC(CC(C)C)(C(=O)O)C3C(=O)N(Cc4ccccc4)C(=O)C23)c1 (stereo not drawn) | 25.1 µM [falling, single point]
Cc1ccc(C(C(=O)NC2CCCC2)N(Cc2ccco2)C(=O)CCC(=O)Nc2ccccn2)cc1 (stereo not drawn) | 3.98 µM [falling, partial curve]
O=C(CCCCCNS(=O)(=O)c1ccc(Br)cc1)NCCN1CCOCC1 | 2 µM [falling, partial curve]
Cc1ccc(-n2nnc3c(=O)n(Cc4ccccc4C)cnc32)cc1 | 12.6 µM [rising, partial curve]
COc1ccc(-c2cc(-c3ccccc3O)[nH]n2)cc1OC | 15.8 µM [falling, single point]
COc1ccccc1OCCSc1nnc(C)n1-c1ccccc1 | 1.58 µM [rising, partial curve]
COCCNC(=O)c1cc2c(=O)n(C)c3ccccc3c2n1C | 7.94 µM [rising, partial curve]
CCOCCCn1c(C)nc2c(c1=O)c1nc3ccccc3nc1n2CCC1=CCCCC1 | 10 µM [rising, partial curve]
COc1ccc(NC(=O)c2ccc(-n3nc(C)c[n+]3[O-])cc2)cc1 | 25.1 µM [rising, single point]
COc1cccc(-c2cc3nc(-c4ccccc4)cc(N4CCC5(CC4)OCCO5)n3n2)c1 | 3.16 µM [rising, full curve]
Cc1nc2cnc(Nc3ccccc3)nc2n(CCC#N)c1=O | 1 µM [rising, full curve]
COc1cccc(-c2cc(NCc3ccc(OC)cc3OC)ncn2)c1 | 7.94 µM [rising, partial curve]
Nc1nc2n(n1)C(c1ccco1)CC(c1ccccc1)N2 (stereo not drawn) | 6.31 µM [rising, partial curve]
COc1ccc(Oc2ncc3nc(-c4cccs4)c(=O)n(Cc4cccc(OC)c4)c3n2)cc1 | 7.94 µM [rising, partial curve]
COc1cccc(Nc2ncc3nc(-c4cc(F)cc(F)c4)c(=O)n(C[C@H]4CCCO4)c3n2)c1 | 1.58 µM [rising, full curve]
COc1ccccc1N1CCN(C(=O)c2sc3nc(-c4ccccc4)cn3c2C)CC1 | 10 µM [rising, partial curve]
Cc1cccc(-c2nnc3sc(-c4ccccc4)nn23)c1 | 25.1 µM [rising, single point]
CN(CCNC(=O)C1CCN(S(=O)(=O)N2CCOCC2)CC1)CCc1ccccc1 | 1.26 µM [rising, partial curve]

SMILES | AC50
Cc1cccc(NC(=O)CSc2nnc([C@@H]3CCCN3C(=O)OC(C)(C)C)o2)c1C | 3.98 µM [falling, single point]
Cc1cc(-c2ccccc2)nc(=O)[nH]1 | 31.6 µM [falling, single point]
COc1ccc(-n2nc(C(=O)Nc3ccc4c(c3)OCO4)c3ccccc3c2=O)c(OC)c1 | 5.01 µM [rising, single point]
Cc1ccc(-c2nnc(SCC(=O)Nc3ccccc3N3CCOCC3)o2)cc1 | 12.6 µM [rising, partial curve]
O=C(NCC1CCCO1)C1c2ccccc2C(=O)N1C1CCCCCCC1 (stereo not drawn) | 0.398 µM [falling, partial curve]
COc1ccc(CCNc2nc(-c3ccco3)cc(C(F)(F)F)n2)cc1OC | 5.01 µM [rising, partial curve]
CC(=O)Oc1ccc(C(=O)Nc2nnc(C)s2)cc1 | 0.316 µM [falling, partial curve]
O=C(Nc1ccccc1C(=O)NCc1ccco1)c1ccccc1 | 31.6 µM [rising, single point]
COC(=O)C(CC(C)C)NC(=O)c1ccc(F)cc1 (stereo not drawn) | 0.00316 µM [falling, full curve, poor fit]
CCOCCCNC(=O)c1cn(CC(C)C)c(=O)c2cc(OC)c(OC)cc12 | 10 µM [rising, partial curve]
CCN(CC)c1ccc2c(C)c(CN3CCOCC3)c(=O)oc2c1 | 10 µM [rising, partial curve]
CCN1CCCC1CNC(=O)c1cc2c(-c3ccc(Cl)cc3)nn(C)c2s1 (stereo not drawn) | 7.94 µM [rising, partial curve]
O=S(=O)(Cc1ccccc1)N1CCC(N2CCN(c3ccccc3)CC2)CC1 | 1 µM [falling, partial curve, poor fit]
CCOC(=O)CSc1nnc(CNC(=O)c2ccco2)n1-c1ccc(F)cc1 | 25.1 µM [rising, single point]
CC12CCC(C(=O)n3c1nc1ccccc13)C2(C)C (stereo not drawn) | 1 µM [falling, partial curve]
Cn1c(=O)[nH]c(=O)c2c1nc(NCc1ccco1)n2CCCc1ccccc1 | 25.1 µM [rising, partial curve, poor fit]
O=C(c1cc(-c2ccco2)on1)N1CCc2ccccc2C1 | 0.00316 µM [falling, full curve, poor fit]
CCCNS(=O)(=O)c1ccc(NC(=O)c2ccccn2)cc1 | 12.6 µM [rising, partial curve]
COC(=O)c1[nH]c2cccc(OC)c2c1NC(=O)CCN1CCC(C)CC1 | 12.6 µM [falling, partial curve]
CCOc1ccc(N2CC(C(=O)Nc3ccc(S(=O)(=O)N4CCOCC4)cc3)CC2=O)cc1 (stereo not drawn) | 20 µM [rising, single point]
O=C(O)c1ccccc1C(=O)N1CC=C(c2ccccc2)CC1 | 0.251 µM [falling, partial curve, poor fit]

In the list so far, 2 have a COOH group.
SMILES | AC50
COc1ccc(O)c(C2NC(CC(C)C)(C(=O)O)C3C(=O)N(Cc4ccccc4)C(=O)C23)c1 (stereo not drawn) | 25.1 µM [falling, single point]
O=C(O)c1ccccc1C(=O)N1CC=C(c2ccccc2)CC1 | 0.251 µM [falling, partial curve, poor fit]
